PubChem BioAssay AID248 (DTP/NCI, 2004)
The list shows only some results of the screen, not a fair sample: it is rich in T/C values a quarter to a half above the control, in often repeated tests (any T/C) and in doses without a T/C. Further doses and runs are listed elsewhere. T/C: endpoint of the treated group in % of that of the vehicle group. Some entries give survivors of the animals treated and no T/C: the source holds a T/C of zero for them, seemingly a mark for toxic or unscored doses. Some survivor counts are full or nearly so, which does not show that the dose was tolerated: the source hardly ever lists a survival T/C far under the control, and the zero likely stands for such cases as well. Counts of survivors are from the toxicity check (mostly the fifth day) where no day follows; animals may have died later. Schedules are NCI's codes, read here as Q, the interval in days (D) or hours (H), X, the number of doses. Some entries hold several experiments; their values stand side by side, smallest first. For survival time, this PubChem deposit counts one and a half times the control or more as active, and values a quarter to a half above the control carry no call in these data; other NCI protocols may use other cut-offs. Some T/C values carry the count of animals alive at the toxicity check (mostly the fifth day); where none is given, no animal had died by that day.

System: L1210 leukemia ip in BDF1 mice, survival T/C
Assay: NCI In Vivo Anticancer Drug Screen. Data for tumor model L1210 Leukemia (intraperitoneal) in B6D2F1 (BDF1) mice
Settings: T/C endpoint: mean survival time, higher T/C = longer survival
[1] = dose: 50.0 mg/kg/injection, schedule: Q01DX009 (ip), vehicle: saline
[2] = dose: 100.0 mg/kg/injection, schedule: Q01DX009 (ip), vehicle: saline
[3] = dose: 200.0 mg/kg/injection, schedule: Q01DX009 (ip), vehicle: saline
[4] = dose: 400.0 mg/kg/injection, schedule: Q01DX009 (ip), vehicle: saline
[5] = dose: 400.0 mg/kg/injection, schedule: Q01DX001 (ip), vehicle: carboxymethylcellulose (CMC)
[6] = dose: 100.0 mg/kg/injection, schedule: Q04DX003 (ip), vehicle: Klucel (hydroxypropylcellulose) (HPC)
[7] = dose: 200.0 mg/kg/injection, schedule: Q04DX003 (ip), vehicle: Klucel (hydroxypropylcellulose) (HPC)
[8] = dose: 200.0 mg/kg/injection, schedule: Q01DX001 (ip), vehicle: saline
[9] = dose: 400.0 mg/kg/injection, schedule: Q01DX001 (ip), vehicle: saline
[10] = dose: 100.0 mg/kg/injection, schedule: Q04DX003 (ip), vehicle: saline with Tween-80
[11] = dose: 200.0 mg/kg/injection, schedule: Q04DX003 (ip), vehicle: saline with Tween-80
[12] = dose: 150.0 mg/kg/injection, schedule: Q01DX001 (ip), vehicle: saline
[13] = dose: 300.0 mg/kg/injection, schedule: Q01DX001 (ip), vehicle: saline
[14] = dose: 400.0 mg/kg/injection, schedule: Q01DX009 (ip), vehicle: water
[15] = dose: 200.0 mg/kg/injection, schedule: Q01DX001 (ip), vehicle: carboxymethylcellulose (CMC)
[16] = dose: 200.0 mg/kg/injection, schedule: Q04DX003 (ip), vehicle: saline
[17] = dose: 400.0 mg/kg/injection, schedule: Q04DX003 (ip), vehicle: saline
[18] = dose: 400.0 mg/kg/injection, schedule: Q04DX003 (ip), vehicle: saline with Tween-80
[19] = dose: 400.0 mg/kg/injection, schedule: Q04DX003 (ip), vehicle: Klucel (hydroxypropylcellulose) (HPC)

## CC1(C)N=C(N)N=C(N)N1c1ccc(OCCCOc2ccc(S(=O)(=O)F)cc2)c(Cl)c1
[1]
  survivor count: 0 of 6
[2]
  survivor count: 0 of 6
[3]
  survivor count: 0 of 6
[4]
  survivor count: 0 of 6

## Cc1cc(/C=C\c2ccc3ccccc3[n+]2C)c(O)c2ncccc12
[5]
  survivor count: 2 of 6

## COc1ccc(CN(CCN(C)C)c2ccccn2)cc1
[6]
  survivor count: 1 of 6
[7]
  survivor count: 0 of 6

## O=C(O)CCl
[8]
  survivor count: 0 of 4
[9]
  survivor count: 0 of 4

## C[Si](C)(C)Oc1cc(N=NNC2=CC(=O)c3ccccc3C2=O)c(O)c2ccccc12
[10]
  survivor count: 6 of 6
[11]
  survivor count: 6 of 6

## C[N+]1(C)C2CCCCC1CC(=O)C2
dose: 75.0 mg/kg/injection, schedule: Q01DX001 (ip), vehicle: saline
  survivor count: 1 of 6
[12]
  survivor count: 0 of 6
[13]
  survivor count: 0 of 6

## O=C(/C=C/c1cccc2ccccc12)c1ccccc1[N+](=O)[O-]
dose: 100.0 mg/kg/injection, schedule: Q04DX002 (ip), vehicle: saline with Tween-80
  survivor count: 3 of 3
dose: 200.0 mg/kg/injection, schedule: Q04DX002 (ip), vehicle: saline with Tween-80
  survivor count: 3 of 3

## CN1CC2C3C=CC(C3)C2C1 (stereo not drawn)
dose: 300.0 mg/kg/injection, schedule: Q01DX001 (ip), vehicle: other
  survivor count: 0 of 6

## CC(=O)N1C=Cn2c(cnc2C)C1O (stereo not drawn)
[14]
  survivor count: 0 of 6

## CCOc1nc(SCC)ncc1C
[14]
  survivor count: 3 of 6

## COC(=O)[C@@H]1c2cc3c(c(O)c2[C@@H](OC)C[C@@]1(C)O)C(=O)c1c(O)cc2c(c1C3=O)OC1O[C@@]2(C)[C@H](O)[C@@H](N(C)C)[C@@H]1O
dose: 25.0 mg/kg/injection, schedule: Q01DX015 (ip), vehicle: carboxymethylcellulose (CMC)
  T/C: 125 % of control
[2]
  survivor count: 6 of 6
dose: 100.0 mg/kg/injection, schedule: Q01DX015 (ip), vehicle: carboxymethylcellulose (CMC)
  survivor count: 0 of 6
[15]
  T/C: 127 % of control
dose: 200.0 mg/kg/injection, schedule: Q01DX015 (ip), vehicle: carboxymethylcellulose (CMC)
  survivor count: 0 of 6
[5]
  survivor count: 0 of 4
dose: 400.0 mg/kg/injection, schedule: Q01DX015 (ip), vehicle: carboxymethylcellulose (CMC)
  survivor count: 0 of 6

## O=C1c2cscc2C(=O)c2c(Cl)sc(Cl)c21
dose: 200.0 mg/kg/injection, schedule: Q04DX003 (ip), vehicle: acetone
  survivor count: 5 of 6
dose: 400.0 mg/kg/injection, schedule: Q04DX003 (ip), vehicle: acetone
  survivor count: 4 of 6

## Cc1ccc(Cl)cc1NC(=O)Nc1cc(Cl)c(Cl)cc1C
dose: 25.0 mg/kg/injection, schedule: Q04DX003 (ip), vehicle: saline with Tween-80
  survivor count: 6 of 6
[10]
  survivor count: 5 of 6 and 6 of 6
[11]
  survivor count: 6 of 6

## ClCC(Br)CBr (stereo not drawn)
[13]
  survivor count: 1 of 6

## CCN(CC)CCn1c2ccncc2c2cnccc21
[16]
  survivor count: 0 of 6
[17]
  survivor count: 0 of 6

## N/C(=N\[N+](=O)[O-])Nc1nc2ccccc2s1
dose: 200.0 mg/kg/injection, schedule: Q04DX002 (ip), vehicle: Klucel (hydroxypropylcellulose) (HPC)
  T/C: 142 % of control [2 of 3 alive]
dose: 400.0 mg/kg/injection, schedule: Q04DX002 (ip), vehicle: Klucel (hydroxypropylcellulose) (HPC)
  survivor count: 1 of 3

## CC(=O)Nc1nc(/C=C\c2ccc([N+](=O)[O-])cc2)c(CCCCc2ccccc2)c(=O)[nH]1
dose: 25.0 mg/kg/injection, schedule: Q01DX001 (ip), vehicle: saline with Tween-80
  survivor count: 6 of 6
dose: 50.0 mg/kg/injection, schedule: Q01DX001 (ip), vehicle: saline with Tween-80
  survivor count: 6 of 6
dose: 100.0 mg/kg/injection, schedule: Q01DX001 (ip), vehicle: saline with Tween-80
  survivor count: 6 of 6

## Nc1ncnc(N)n1
[5]
  survivor count: 1 of 4

## COc1ccc(CCN)cc1
dose: 200.0 mg/kg/injection, schedule: Q04DX002 (ip), vehicle: saline
  survivor count: 3 of 3
dose: 400.0 mg/kg/injection, schedule: Q04DX002 (ip), vehicle: saline
  survivor count: 0 of 3

## NNC(=O)c1cccnc1
[8]
  survivor count: 2 of 6
[3]
  survivor count: 0 of 6
[9]
  survivor count: 0 of 6
[4]
  survivor count: 0 of 6

## CC1(C)N=C(N)N=C(N)N1c1cccc(CCCCOc2ccccc2)c1
[10]
  survivor count: 1 of 6
[11]
  survivor count: 0 of 6
[18]
  survivor count: 0 of 6

## C=CC[N+](C)(C)C
[12]
  survivor count: 0 of 6
[13]
  survivor count: 0 of 6

## CN(C)CCCNC(=S)C(=S)NCCCN(C)C
[19]
  survivor count: 0 of 6

## C[N+](C)(C)CCCC1C2CCC(C2)C1C#N (stereo not drawn)
dose: 25.0 mg/kg/injection, schedule: Q01DX009 (ip), vehicle: saline
  survivor count: 3 of 6
[1]
  survivor count: 3 of 6
dose: 100.0 mg/kg/injection, schedule: Q04DX003 (ip), vehicle: saline
  survivor count: 0 of 6
[16]
  survivor count: 0 of 6
[17]
  survivor count: 0 of 6

## COc1ccccc1OCCOCCNC1C(C)CCCC1(C)C (stereo not drawn)
[7]
  survivor count: 2 of 6
[19]
  survivor count: 2 of 6

## CCCCCCCCCCSS(=O)(=O)O
dose: 200.0 mg/kg/injection, schedule: Q01DX001 (ip), vehicle: other
  survivor count: 6 of 6

## CCN(C)CCC(C=NCC(CCN(C)CC)(CCN(C)CC)c1cccc2ccccc12)(CCN(C)CC)c1cccc2ccccc12
dose: 50.0 mg/kg/injection, schedule: Q04DX003 (ip), vehicle: saline
  survivor count: 0 of 6
[10]
  survivor count: 0 of 6
[11]
  survivor count: 1 of 6
[18]
  survivor count: 0 of 6

## Nc1cc(Nc2cccc(Cl)c2)nc(N)n1
[15]
  survivor count: 0 of 6
[5]
  survivor count: 0 of 6

## C=CCCC1(Cc2ccccc2)C(=O)NC(=O)NC1=O
[13]
  survivor count: 2 of 6

## Nc1nc(N)c2cc(N3CCCC3c3ccc(Cl)cc3)ccc2n1 (stereo not drawn)
dose: 50.0 mg/kg/injection, schedule: Q01DX009 (ip), vehicle: water
  survivor count: 2 of 6
dose: 100.0 mg/kg/injection, schedule: Q01DX009 (ip), vehicle: water
  survivor count: 0 of 6
dose: 200.0 mg/kg/injection, schedule: Q01DX009 (ip), vehicle: water
  survivor count: 0 of 6
[14]
  survivor count: 0 of 6

## Cn1c(=O)n2n(c1=O)C1CCC2C2C=CC21 (stereo not drawn)
dose: 25.0 mg/kg/injection, schedule: Q01DX001 (ip), vehicle: saline
  survivor count: 0 of 6
dose: 100.0 mg/kg/injection, schedule: Q01DX001 (ip), vehicle: saline
  survivor count: 0 of 6
[8]
  survivor count: 0 of 6
[9]
  survivor count: 0 of 6

## CCOC(=O)c1ccc(N=NN(C)CC(C)C)cc1
dose: 400.0 mg/kg/injection, schedule: Q01DX009 (ip), vehicle: Klucel (hydroxypropylcellulose) (HPC)
  T/C: 131 % of control

## CC(C)(C)C1CCNC(=O)CC1 (stereo not drawn)
dose: 40.0 mg/kg/injection, schedule: Q01DX009 (ip), vehicle: Klucel (hydroxypropylcellulose) (HPC)
  survivor count: 5 of 6
dose: 80.0 mg/kg/injection, schedule: Q04DX003 (ip), vehicle: Klucel (hydroxypropylcellulose) (HPC)
  survivor count: 3 of 6
[6]
  survivor count: 6 of 6
[7]
  survivor count: 0 of 6
[19]
  survivor count: 0 of 6

## CCCCCCCCCCCCCCCCCC(=O)NCNC(=O)CCCCCCCCCCCCCCCCC
dose: 75.0 mg/kg/injection, schedule: Q01DX009 (ip), vehicle: saline with Tween-80
  survivor count: 6 of 6
dose: 150.0 mg/kg/injection, schedule: Q01DX009 (ip), vehicle: saline with Tween-80
  survivor count: 6 of 6
